{"source": "patent US11260027B2", "about": "“Donor organ pre-treatment formulation” (MUSC FOUNDATION FOR RESEARCH DEVELOPMENT, priority 2015, dated 2022)", "key": {"[1]": {"tested_on": "MCEC co-cultured with sensitized T cells", "experiment": "Hypoxic cold storage MCEC / sensitized T cell co-culture, KC and IFN-γ", "format": "cell-based, mouse"}, "aortic allograft": {"tested_on": "aortic allograft", "experiment": "Aortic allograft model of chronic allograft rejection (Balb/c to C57Bl/6)", "format": "in vivo, mouse", "conditions": "graft pre-treated 6 hrs at 4° C. in Belzer UW, harvested 28 days post transplant"}}, "note": "At least one compound was matched to its structure with a doubt left.", "data": [{"smiles": "CO[C@H]1C[C@@H]2CC[C@@H](C)[C@@](O)(O2)C(=O)C(=O)N2CCCC[C@H]2C(=O)O[C@H]([C@H](C)C[C@@H]2CC[C@@H](O)[C@H](OC)C2)CC(=O)[C@H](C)/C=C(\\C)[C@@H](O)[C@@H](OC)C(=O)[C@H](C)C[C@H](C)/C=C/C=C/C=C/1C", "note": "[free rapamycin, rapamycin]", "values": [{"measurement": "production of mouse IL-8 (KC) by stimulated MCEC", "setting": "[1]; 100 ng ml^−1, 6 hours hypoxic chamber 4° C. in UW", "result": "significantly dampened"}, {"measurement": "T cell production of IFN-γ", "setting": "[1]; co-culture, 100 ng ml^−1, hypoxic cold storage", "result": "significantly reduced"}, {"measurement": "intimal thickening of aortic allograft", "setting": "aortic allograft", "result": "significantly reduces intimal thickening"}]}]}
